“And” between values parts separate entries of the source, which are not always exact repeats. Equal entries are not always repeated. The list shows a part of the results. Single wells; the ratio to wells without odorant was worked out here, and repeats agree poorly.
Columns and labels:
Assay in all cases: odorant receptor activation (CRE luciferase / Renilla) (fold of no-odor wells); higher = more activation
Settings in all cases: 100 µM
[1] = tested on: OR13G1 I132V clone 1036
[2] = tested on: OR13H1 clone 1497
[3] = tested on: OR13J1 H133R clone 1098
[4] = tested on: OR14A16 Indel clone 1030
[5] = tested on: OR14A2 clone 1042
[6] = tested on: OR14C36 G225R/D231Y clone 1028
[7] = tested on: OR14I1 V36A/D50N/S170N clone 1479
[8] = tested on: OR14J1 clone 1318
[9] = tested on: OR14J1 clone 1391
[10] = tested on: OR14K1 clone 1043
[11] = tested on: OR14L1 clone 1029
[12] = tested on: OR1A1 P285S clone 1531
[13] = tested on: OR1A1 R128H clone 1528
[14] = tested on: OR1A1 V233M clone 1287
[15] = tested on: OR1A1 V233M clone 1530
[16] = tested on: OR1A1 clone 1529
[17] = tested on: OR1A2 clone 1158
[18] = tested on: OR1C1 clone 1044
[19] = tested on: OR1D2 clone 1376
[20] = tested on: OR1D5 clone 1289

SMILES	odorant receptor activation [1]	odorant receptor activation [2]	odorant receptor activation [3]	odorant receptor activation [4]	odorant receptor activation [5]	odorant receptor activation [6]	odorant receptor activation [7]	odorant receptor activation [8]	odorant receptor activation [9]	odorant receptor activation [10]	odorant receptor activation [11]	odorant receptor activation [12]	odorant receptor activation [13]	odorant receptor activation [14]	odorant receptor activation [15]	odorant receptor activation [16]	odorant receptor activation [17]	odorant receptor activation [18]	odorant receptor activation [19]	odorant receptor activation [20]
CS [methanethiol]	0.893	0.891	1.08	0.993	0.82	1.17	0.88	0.767	1.11	0.834	1.14	1.07	0.943	1.69 and 0.835	0.895	0.803	0.972	1.05	1.26	0.812
CCOc1cc(C=O)ccc1O [ethyl vanillin]	0.852 and 1.13	0.923 and 1.98 and 1.23	1.08 and 1.15	1.47 and 1.02	1.5 and 1.15	1.1 and 1.15	1.03 and 1.57 and 1.12	1.97 and 1.15	1.07 and 1.25	0.731 and 1.15	1.37 and 1.4	1.22 and 2.85 and 1.19	0.997 and 2.12 and 1.26	2.28 and 2.37 and 1.07	1.63 and 2.61 and 1.16	0.99 and 2.77 and 1.29	1.94 and 1.27	1.29 and 1.03	1.14 and 1.12	1.26 and 1.17
CCCCOC(C)=O [butyl acetate]	1.08	0.872	0.849	0.82	1.17	0.811	1.24	0.669	0.136	0.89	0.772	1.16	0.958	2.57 and 0.922	1.02	0.995	0.941	1.1	0.157	0.712
CCC(C)=O [2-butanone]	2.72	1.09	3.68	2.75	2.04	3.74	0.926	1.23	1.83	3.49	2.99	1.04	0.946	–	1.31	1.11	0.858	3.2	0.679	1.05

Source: the odorant receptor screen of Mainland et al. (2015)
